Results on one substance are retold here after publication PMC8222926.

Results are given in words; binding and its absence hold for the method and conditions named. Binding seen in cells or lysates may run through a third protein. A result given as binding can be weak or reduced; the word gives no strength.

In this assay the target is T1, endogenous Fe65 (human (endogenous in A549; legend: HEK293T)) (UniProt O00213).
T1 sequence: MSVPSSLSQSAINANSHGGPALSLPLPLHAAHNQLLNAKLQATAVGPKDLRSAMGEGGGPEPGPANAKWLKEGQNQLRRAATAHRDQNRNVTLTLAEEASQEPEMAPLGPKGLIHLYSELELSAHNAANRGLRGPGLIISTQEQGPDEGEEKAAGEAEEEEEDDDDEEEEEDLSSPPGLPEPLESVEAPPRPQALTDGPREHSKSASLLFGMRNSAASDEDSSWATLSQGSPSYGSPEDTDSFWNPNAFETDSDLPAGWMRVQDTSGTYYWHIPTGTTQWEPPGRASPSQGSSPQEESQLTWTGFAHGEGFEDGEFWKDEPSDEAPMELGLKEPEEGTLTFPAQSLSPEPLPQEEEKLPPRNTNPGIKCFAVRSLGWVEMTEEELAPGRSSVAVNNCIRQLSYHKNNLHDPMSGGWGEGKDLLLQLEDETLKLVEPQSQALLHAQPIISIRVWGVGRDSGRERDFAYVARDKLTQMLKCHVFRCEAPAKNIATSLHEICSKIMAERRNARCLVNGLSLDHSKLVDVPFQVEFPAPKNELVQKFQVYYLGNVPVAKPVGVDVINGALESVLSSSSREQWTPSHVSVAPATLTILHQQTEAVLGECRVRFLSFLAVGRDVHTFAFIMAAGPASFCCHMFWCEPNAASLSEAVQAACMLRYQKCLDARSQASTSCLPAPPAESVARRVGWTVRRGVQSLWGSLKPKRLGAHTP
Kind of assay: co-IP; endogenous proteins; Fe65 antibody; lysate of A549 cells (text; the legend says HEK293T); 0.25% CHAPSO; protein G magnetic beads; immunoblot.

Consider endogenous PP1 (enzyme), for which the binding entry is “binds”.
